Laboratory results as given in US20160046678A1 (ZYNGENIA, published 2016).
No constants are given. Whether binding was seen depends on the method and setting. Some results given as binding are weak or reduced against the parent protein; the word gives no strength.

T1: Angiopoietin-2 (Ang2) (human, UniProt O15123 19-496, biotin label in Examples 22-24)
T1 construct: also called rhAng2; recombinant Ang2
T1 sequence (looked up): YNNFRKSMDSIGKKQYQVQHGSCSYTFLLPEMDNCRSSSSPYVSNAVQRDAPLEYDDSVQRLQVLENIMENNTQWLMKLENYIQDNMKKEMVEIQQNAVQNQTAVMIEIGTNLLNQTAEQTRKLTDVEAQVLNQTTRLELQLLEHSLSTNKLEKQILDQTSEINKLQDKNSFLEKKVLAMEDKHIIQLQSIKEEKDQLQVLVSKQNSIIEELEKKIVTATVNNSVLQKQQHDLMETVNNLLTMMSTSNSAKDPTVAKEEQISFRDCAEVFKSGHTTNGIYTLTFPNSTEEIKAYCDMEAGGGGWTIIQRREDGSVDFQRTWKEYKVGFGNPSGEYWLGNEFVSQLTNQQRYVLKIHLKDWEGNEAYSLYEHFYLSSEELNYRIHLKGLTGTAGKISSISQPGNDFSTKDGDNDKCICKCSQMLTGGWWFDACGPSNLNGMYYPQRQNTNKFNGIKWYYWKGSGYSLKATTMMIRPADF


Each binder was assayed against T1, Angiopoietin-2 (Ang2) (assay: Example 48, method not detailed).

Binder | binding
MCPWWYDHLHCY [ANG58] | binds
HCPYWYDHELCH [ANG80] | binds
QCPWWYDHYWCN [ANG106] | binds
ECAIYPNPQWCY [ANG102] | binds
DCVWFPNPDWCY [ANG69] | binds
WCDRGTYVMFCD [ANG87] | binds
TCPVWWDDYWCG [ANG88] | binds
HCPLWYDHYFCA [ANG98] | binds
LQYEEFYDHV [ANG67] | binds
FCALFPYMFPCE [ANG70] | binds
ECYMLHACYDEGH [ANG86] | binds
PCAWYPNPEFCY [ANG66] | binds
ECDGWEYHYVCW [ANG83] | binds
FCDFYDYHYVCF [ANG107] | binds
YCPQWYDHWLCT [ANG81] | binds
DGSPCAWFPNPSFCY [ANG71] | binds
QCPYRINHQRCS [ANG68] | binds
WCDYGTYVVQCE [ANG89] | binds
NCWEYPNPAWCY [ANG82] | binds
HCPWGTTMNCV [ANG52] | binds
PCAWFPNPSFCY [ANG56] | binds
TCWFWELEFFCI [ANG77] | binds
ECYWYPNPWFCY [ANG84] | binds
ECTDYPEWRYCQ [ANG54] | binds

Now from value to binder:

binding | Binder
binds | MCPIWYDHQWCH [ANG59]
binds | VCPWWYDHWLCS [ANG72]
binds | DCYYFPNPQWCF [ANG104]
binds | MCWNHWWMCE [ANG43]
binds | GCWHDGFMCF [ANG63]
binds | SCWWYPNPQWCY [ANG75]
binds | ECAWFPNPWCCY [ANG62]
binds | WCDHWIVWPECW [ANG64]
binds | YCPLCQYHYGCF [ANG74]
binds | QCKWFPNPKECY [ANG93]
binds | ECWWYYNHFWCH [ANG61]
binds | ECYWYPNPMWCY [ANG51]
binds | ECYFLVNMEWCQ [ANG76]
binds | KCYWFPNPIECY [ANG78]
binds | HCYWHPSPSWCY [ANG90]
binds | DCVDYPGWEYCV [ANG85]
binds | DCYYYPNPSWCW [ANG103]
binds | WCDHTEAWPECF [ANG50]
binds | ACAWYPNPVECY [ANG101]
binds | DCAWFPNPAWCH [ANG79]
binds | ECDGWEYHYFCW [ANG73]
binds | ECFFFPNPWHCY [ANG55]
binds | HCIFNFPACI [ANG46]
binds | PCPYYFNRQHCV [ANG94]
binds | QCNDYPNWRYCF [ANG65]
binds | ICYVYGLEEWCI [ANG95]
binds | QCYWFPNPLECY [ANG91]
binds | LCFNHWWMCP [ANG47]
binds | MCIYWKEPWCY [ANG49]
